Results deposited as PubChem BioAssay AID504744 (Drosophila RNAi Screening Center, 2011)
The screen tested about 23,000 reagents; shown is an unselected part of those with a known target gene and a result. In the full data, 98 (0.43%) are marked active. 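Only hit calls are given; the phospho-dAkt signals, z-scores and hit direction were not deposited.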 A plus sign joins genes that one reagent is predicted to hit.

Test: 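Identify dsRNAs that increase or decrease phospho-dAkt after insulin treatment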 (primary screen)
System: Drosophila Kc167 cells
Knock-down reagent: long dsRNA against Drosophila genes, 250 ng dsRNA per well of a 384-well plate
Duration: 3 days of knock-down, then overnight serum-free starvation before stimulation
Treatment: bovine insulin at 387 nM for 10 minutes after 12 h without serum
Measured: 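In-cell antibody fluorescence for phospho-dAkt in each well over DNA-dye signal, with log2 residuals expressed as z-scores adjusted for cell count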
Hit rule: 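Hit in the insulin screen when the two-replicate mean z-score is more extreme than plus or minus 2.5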

CG3626 [DRSC18318]
- Call: inactive

CG42570 [DRSC09391]
- Call: inactive

Pp1-Y2 [DRSC21608]
- Call: inactive

CG6788 + CR32496 [DRSC22043]
- Call: inactive

CG8483 [DRSC16430]
- Call: inactive

EndoA [DRSC14775]
- Call: inactive

CG8785 [DRSC07266]
- Call: inactive

fln [DRSC11346]
- Call: inactive

CG17754 [DRSC18131]
- Call: inactive

Cnb [DRSC08569]
- Call: inactive

Cp19 [DRSC11121]
- Call: inactive

CG14204 [DRSC19559]
- Call: inactive

Acp53Ea [DRSC05916]
- Call: inactive

CG5274 [DRSC11774]
- Call: inactive

CG17026 [DRSC10237]
- Call: inactive

CG10803 [DRSC17763]
- Call: inactive

CG30089 [DRSC06126]
- Call: inactive

CG30089 [DRSC06127]
- Call: inactive

CG30089 [DRSC06267]
- Call: inactive

CG30089 [DRSC06268]
- Call: inactive

CG30089 [DRSC21694]
- Call: inactive

CG5062 [DRSC18385]
- Call: active

CG32333 [DRSC08627]
- Call: inactive

CG32333 [DRSC08629]
- Call: inactive

Sik3 [DRSC06505]
- Call: inactive

Sik3 [DRSC06771]
- Call: inactive

Called active (from the list above):
CG5062 [DRSC18385]
- Call: active

The listing continues:
Gr93b [DRSC22063]
- Call: inactive

ver [DRSC10125]
- Call: inactive

CG43316 [DRSC06296]
- Call: inactive

CG43316 [DRSC06297]
- Call: inactive

CG31287 [DRSC13138]
- Call: inactive

CG1090 [DRSC12150]
- Call: inactive

CG1090 [DRSC21604]
- Call: inactive

CG11566 (retired record) + stg1 [DRSC20473]
- Call: inactive

CG11566 (retired record) + stg1 [DRSC20481]
- Call: inactive

CG11566 (retired record) + stg1 [DRSC20482]
- Call: inactive

CG11566 (retired record) + stg1 [DRSC20483]
- Call: inactive

CG13712 [DRSC08321]
- Call: inactive

CG34251 [DRSC09498]
- Call: inactive

CG34251 [DRSC09500]
- Call: inactive
